In article PMC7821884, “BRAF inhibition protects against hearing loss in mice” (Science Advances, 2020):

System: P3-P4 FVB mouse cochlear explants
Conditions: not given
For `COC[C@H]1Cn2cc(-c3nc(Nc4ccnn4C)ncc3C)nc2C(=O)N1Cc1ccc(F)c(F)c1` [AZD0364], the “therapeutic index (TI), LD50/IC50” value was 200.0. With `CCCS(=O)(=O)Nc1ccc(F)c(C(=O)c2c[nH]c3ncc(Cl)cc23)c1F` [PLX-4720] the “therapeutic index (TI), LD50/IC50” value was 12.0. With `Cn1c(Nc2ccc(C(F)(F)F)cc2)nc2cc(Oc3ccnc(-c4ncc(C(F)(F)F)[nH]4)c3)ccc21` [RAF-265] the “therapeutic index (TI), LD50/IC50” value was 666.7. For `CC(=O)Nc1cccc(-n2c(=O)n(C3CC3)c(=O)c3c(Nc4ccc(I)cc4F)n(C)c(=O)c(C)c32)c1` [trametinib], the “therapeutic index (TI), LD50/IC50” value was 40.0. With `CCCS(=O)(=O)Nc1ccc(F)c(C(=O)c2c[nH]c3ncc(-c4ccc(Cl)cc4)cc23)c1F` [vemurafenib] the “therapeutic index (TI), LD50/IC50” value was 15.0.

System: P3-P4 FVB mouse cochlear explants
Set-up: method as in PMID 29514916, PMID 9303151
Conditions: identical P3 FVB explant model; cited from earlier work
For `CSCC[C@@H](N)C(=O)O` [D-methionine], the TI is listed as 1.0. In the case of `O=S([O-])([O-])=S.[Na+].[Na+]` [STS, sodium thiosulfate], the TI is given as 285. In the case of `C[C@@H]1C[C@H]2[C@@H]3CCC4=CC(=O)C=C[C@]4(C)[C@@]3(F)[C@@H](O)C[C@]2(C)[C@@]1(O)C(=O)CO` [dexamethasone], the TI is given as 20. In the case of `O=c1c2ccccc2[se]n1-c1ccccc1` [ebselen], the TI is listed as 1.4. For `O=C1Cc2c([nH]c3ccc(Br)cc23)-c2ccccc2N1` [kenpaullone], the TI is given as 150.
